These results are taken from PubChem BioAssay AID1508600 (Functional Genomics Laboratory (NCATS/FGL), 2020).

Among all 53,000 sequences or so, about 3,700 (7%) were called active.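 Rule for the calls: active = gene knockdowns whose robust z-score for IL-1 alpha signal is at least 2 or at most -2, so actives lie on both sides; inactive = the rest.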 The list shows a part of the results.

The experiment in a line: Components of the Cytosolic LPS Sensing Pathway: Gene Identification via Genome-wide siRNA Screen.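 Note: robust z of the log signal after scaling to non-targeting control siRNA wells of the plate.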 Particulars: RAW264.7 macrophages, IL-1a HTRF, actives lie on both sides, screened at 100 nM (by protocol), cells primed 5 h with Pam3CSK4 first. A digest of the protocol:
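Three distinct siRNAs per gene were tested singly at 100 nM in RAW264.7 macrophages. Following Pam3CSK4 priming and 24 hour LipidA transfection, IL-1a secretion was read by HTRF.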
(In general: In TR-FRET formats the signal depends on donor and acceptor labels being close together.)
For the sequence GGAAGAAAGUGAAGAAGAGTT against Cdr1os, the z-score is inactive: -0.387.
For the sequence GGUGUGUGCCUUUUAUUUUTT against Gins4, the z-score was inactive: -0.00195.
The same measure for GGUUGUCUUGACACCCUACTT against Tnfrsf1b: active: -2.21; for GGUGUUCCUUUCACGAACATT against Gpr158: inactive: 0.0128; for GGUACACCAGGAAUAGACGTT against Prl7a1: inactive: 0.236.
Turning to CGCCAGCAGAACUCAAAUATT against Gm11992, the z-score is inactive: 0.623.
Turning to GGAAGCAGAGCAGCUGUUUTT against Skiv2l, the z-score was inactive: -0.567.
Under GCAAUUUCCUGUGUUAAUATT against Rab3c stands inactive: 0.921.
The same measure for GAAAAAUAAUGGAGUUUGGTT against Gtf2h5: inactive: 0.513; for GGGAUUAUGUGUCAUUUGUTT against Vwa2: inactive: 1.9; for GGUCUGACAUUACUCAAAUTT against Rad51: inactive: 1.59.
The same measure for CCACAUUCCUCAUUCUGUATT against Vars2: inactive: -0.622; for GACUCUAAACCUAGCAGCGTT against Basp1: active: -2.34; for GGAUGUUUUGAAAUCUCGUTT against Acad11: inactive: 0.955.
GGAUUUGUUUGCUUAGCUGTT against Ctbp1: the z-score is inactive: 0.739.
For the sequence GGUGAUGGUGAACAAGAAATT against Lgals9, the z-score is inactive: -0.811.
Regarding GGAUUUUUAUAACCCACUGTT against Cldn9, the z-score was inactive: -0.644.
GCUGAAGGGUCUCGUAUUGTT against Hes2: the z-score was inactive: 0.262.
As to GGAGAAGGUUCGAAGAAGCTT against Lysmd3, the z-score is inactive: 0.248.
The same measure for GGCCUGUAUCACUUUUAUCTT against Pcsk2: inactive: -0.36; for GCCGAUAGCAUAGACAGUGTT against Kansl2: inactive: 0.6; for CCCACUGAUGCUAUUUCUATT against Rad1: active: -2.57.
Under GGACUAAGAUUUGUGUUAGTT against Ccdc127 stands active: 2.15; under GGCAUUCCAGAGAAAGCGUTT against F3, inactive: -1.33.
Under GCACCCAUAUCAACGAGGUTT against Olfr924 stands inactive: 0.484; under GGUACAACAAAUCUUAUCATT against Abca6, inactive: -0.476; under GGUGGAAUUCAUUUUGACATT against Dnajb6, inactive: -0.42.
With GGAACCUGAUUGACUUGGATT against Tmem63c, the z-score is inactive: 0.511.
Under GCUAUAGCGCGGAAAUGGATT against Dclk3 stands inactive: -0.531.
The same measure for GGACAAGCUGCAUCUGUUUTT against Rgma: inactive: -1.26.
Under GCACAAGACCUGCAUACUATT against Ttc5 stands inactive: -0.76.
Consider CCUACACCUUCAGUUUGAUTT against Pramel31, for which the z-score is inactive: 1.64.
On to CGCAGGUUUGAGUACAAGCTT against Lman1l, for which the z-score is inactive: -0.237.
Under GGACAAUGGUUCCUUGGAUTT against Cdc25c stands inactive: 0.981; under CGACUGGUCUUGAUUGUUATT against H2ac6, inactive: 1.81.
Under GGUAUCGACCACAGAUCAUTT against Plxnd1 stands inactive: 1.77; under GCCAAGACCAUUCAGCCUUTT against Zfp579, inactive: -0.394.
The same measure for CGCUCUGUUAAUGCAGGAUTT against Papss1: active: 3.22; for GGAUUAUGGAAAGAACUUUTT against Sort1: inactive: 0.742.
Consider GGUACUAAAUAAAAGACCGTT against Dsc2, for which the z-score was inactive: 1.15.
The same measure for GCUGUGACAGAAGCUUUCGTT against Vars2: inactive: -0.201; for GUGGGAUUCCUGUACAAAUTT against Olfr1118: inactive: 1.57; for CGAUUUAAUGUCAACAUUGTT against Arhgap5: inactive: -0.0577.
As to GCACGCCUCUUUCAGCUAUTT against Pitx3, the z-score was inactive: 1.26.
Consider GGAAGAAGAAGAUAAAGCGTT against Grk6, for which the z-score is inactive: 0.184.
The same measure for GGUGAAGGCCAAUACAUAUTT against Gatm: inactive: -0.69; for GCUACACCCUCUGUGAGUUTT against Csrnp2: active: -2.07.
Under GGAAGUUUUUCCAAGAAGATT against Acadl stands inactive: -0.231.
The same measure for UAGUGUCACCUACAGAGAATT against Ercc6l2: inactive: -0.817.
As to GGUAGCUUAUUGCUAAGGCTT against Pnn, the z-score is inactive: 0.724.
The same measure for CCAGGAUUGCUGUUCUGAATT against Vac14: inactive: -0.11; for GCUUACAAGGCAUGUAUGATT against Rccd1: active: 3.46.
Under GGAUUAUGGCUUCAUUAAATT against Glmn stands inactive: 0.586; under GGACAAUAUCAGAAAGAGUTT against Purg, inactive: 1.13; under GGUACUCUGAAAAGAUCGCTT against Gm4952, inactive: 0.534.
Under GGAAAAAGCAAAUUGAGGATT against Uchl1 stands inactive: -1.48; under GGAGCAAGACAACAAAGAUTT against Adgre5, inactive: -0.738.
As to GGAAAUUGCACCUUUAAAGTT against Rnf130, the z-score is inactive: 0.335.
GGCCAUUAAUUACUACGAGTT against Ttc21a: the z-score is inactive: 0.368.
Take GGGAGUUAACAAAAACAUATT against Arhgap30: the z-score was inactive: -0.0276.
Under GGAAUUUCAUGGCAAGGGUTT against Fmc1 stands inactive: 0.652; under GGACAUUGCUGUAUUUAUCTT against Nop9, inactive: 0.417.
Turning to CCUUGCUGUUCUACUUUGCTT against Olfr1309, the z-score is inactive: 1.87.
The same measure for GGUACCUUCAAAGAAUUGUTT against Snx1: inactive: 0.0897; for GGCCAAGCUAUAAGAAAUGTT against Cntnap2: inactive: 0.201.
The same measure for GCAGGAGUCAAAUUUUCUATT against Nemp1: inactive: -0.795; for UACCUUGGGUUCUAAGGCATT against Atg2a: inactive: 1.6; for GGAAAAAAAAAAGCAGUGATT against Phactr4: inactive: 0.662.
The same measure for CCUGAACCAUGUUGAAUAUTT against Fgfbp3: inactive: 1.09; for GGAGAUCUCCAUCAUCACCTT against Usp50: inactive: -1.52.
As for GGCUACACUCUGACAGCACTT against Znhit2, the z-score is inactive: -0.666.
On to GGACUAUGGUGGGAACUAGTT against Tas2r119, for which the z-score was inactive: -0.564.
The same measure for GGAUAUUUUCAAUGCUGUUTT against Large1: inactive: -1.13; for GGCCAUUGUUGAAAUGUACTT against Myh14: inactive: 0.175.
The same measure for GGGAAGCUUUACUUUUUAATT against Mapk4: active: 2.05; for GCCCGCAUUCUUAUUCGAUTT against Tmem64: inactive: -1.13; for GGCCUCUACUUCUUUGAGUTT against Cmtm4: inactive: -0.903.
With GCCUUCCUUUUUGUCAUUATT against Olfr1387, the z-score is inactive: -0.0158.
Under GCCAGUGUUAUCCAGGACUTT against Cggbp1 stands inactive: 1.35; under CGUGGUAGGUCCCAUUAGATT against Usp13, inactive: -1.13.
Under GCUACAUGUCAAAGAACCATT against Yars2 stands inactive: 0.311.
The same measure for GGCUCAGAUACAUCUGUUATT against Clip4: inactive: -0.256; for GGAAGACCUUCAGAGAGAATT against Ell2: active: 4.25; for GCUCUCAUACUUUGAACCUTT against Pank3: inactive: 0.232.
As to GGUGGAGUUAACGAGAAACTT against Ccn1, the z-score was inactive: 0.69.
The same measure for “GUGUGCUGUCGAUGUGUCUTT against 4931422A03Rik”: inactive: 0.428.
Take GGAACUCCGAGUAGACGUGTT against Smyd1: the z-score was inactive: -1.24.
The same measure for GGCUGUGGUGCUCAAUAAGTT against Clstn2: inactive: -1.29.
Under GCAACAAUGAGAGACCACATT against Htr5a stands active: 3.27.
The same measure for GAUAUAGUCACAGUGUUUUTT against Vmn1r218: inactive: -0.41; for GGCUGACAGGGACCAAUAUTT against Trf: inactive: -0.839.
In the case of GGAAUCUCCCACUGUUUCCTT against Gpx2, the z-score is inactive: -0.46.
Under GCCGAGAUGGUCAUAAGCUTT against Rbbp5 stands inactive: 1.99; under CCUACGUGAACAUGACGGUTT against Agfg1, inactive: 0.096; under GGAAGACGAAGAGUUUGGATT against Aqp5, active: 2.37.
The same measure for GGGUGCUGUCAACAUAUGATT against Gabrq: inactive: 0.67; for GGAGUAUUAUGAAGUGUUGTT against Aip: inactive: 0.108.
Under GGACGAUUUGGGUCACCUUTT against Rabep1 stands inactive: -0.278.
GGAAAUCGCAUUUAUUGUUTT against Olfr1090: the z-score was inactive: 0.863.
The same measure for GGGUUAUGUGUUGAGCUCCTT against Bub3: inactive: 0.0843; for GGCAUCCCUCUAGAGAACATT against Erbin: inactive: -0.332; for GGAGCAAGAAAAGAAAGUGTT against Zfp354c: inactive: 1.15.
The same measure for GGAACGAGAACGAGUCCUUTT against Psd2: inactive: -0.691; for UAUUAAGUGAGGGUAGUAGTT against Olfr1168: inactive: -1.43.
As to GUAUUCGGUAAUUUGACUUTT against Olfr921, the z-score was inactive: 0.315.
Under GGACAAUGUCCUCUCGCUATT against Tgm2 stands inactive: -0.683; under CGGUUUUGUCAAAGCCCUGTT against Junb, inactive: 0.322; under GGGAAGAGAGGAGAAUAUUTT against Stat4, inactive: -1.98.
